{"source": "PubChem BioAssay AID1508597, Cure First, 2020", "assay": "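Knock-downs altering ovarian cancer cell survival with or without PARP inhibitor rucaparib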 (primary screen)", "system": "human ovarian carcinoma lines grown from tumours: OCI-P5x (papillary serous) and OCI-C5x (clear cell)", "reagents": "siRNA pool against human genes, 1.25 pmol siRNA per well", "time to read-out": "72 h or 96 h, depending on the cell culture", "treatment": "rucaparib 20 µM (about IC30) or vehicle, present until read-out", "rucaparib or vehicle": "Rucaparib", "cell line": "OCI-C5x (clear cell)", "read-out": "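Luminescent ATP-based viability assay read 72 or 96 h after transfection, depending on culture, given as normalised percent viability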", "direction": "viability, normalised: higher = more viable cells remaining", "hit rule": "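Active when normalised viability falls below 80 percent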", "calls": "active = viability under 80%; inactive = viability 80% or more", "note": "Shown is an unselected part of the about 2,100 reagents, in one setting of the screen. 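Calls flag viability under 80% in either arm, not effects specific to rucaparib; the reference for percent is not stated.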 Unmarked entries are inactive. Not given: the 100% reference."}
{"Gene": "TRIO", "technical replicate": "1", "viability, normalised (%)": "53.2 (active)"}
{"Gene": "TRIO", "technical replicate": "2", "viability, normalised (%)": "58.8 (active)"}
{"Gene": "TRIO", "technical replicate": "3", "viability, normalised (%)": "72.3 (active)"}
{"Gene": "ALK", "technical replicate": "1", "viability, normalised (%)": "47.5 (active)"}
{"Gene": "ALK", "technical replicate": "2", "viability, normalised (%)": "46.6 (active)"}
{"Gene": "ALK", "technical replicate": "3", "viability, normalised (%)": "55 (active)"}
{"Gene": "ARX", "technical replicate": "1", "viability, normalised (%)": "54.4 (active)"}
{"Gene": "ARX", "technical replicate": "2", "viability, normalised (%)": "55.4 (active)"}
{"Gene": "ARX", "technical replicate": "3", "viability, normalised (%)": "40.6 (active)"}
{"Gene": "PCDHB13", "technical replicate": "1", "viability, normalised (%)": "43.3 (active)"}
{"Gene": "PCDHB13", "technical replicate": "2", "viability, normalised (%)": "51.4 (active)"}
{"Gene": "PCDHB13", "technical replicate": "3", "viability, normalised (%)": "41.1 (active)"}
{"Gene": "ZDHHC15", "technical replicate": "1", "viability, normalised (%)": "48.3 (active)"}
{"Gene": "ZDHHC15", "technical replicate": "2", "viability, normalised (%)": "73.2 (active)"}
{"Gene": "ZDHHC15", "technical replicate": "3", "viability, normalised (%)": "55 (active)"}
{"Gene": "AAK1", "technical replicate": "1", "viability, normalised (%)": "48.1 (active)"}
{"Gene": "AAK1", "technical replicate": "2", "viability, normalised (%)": "41.4 (active)"}
{"Gene": "AAK1", "technical replicate": "3", "viability, normalised (%)": "49.5 (active)"}

Continued (4 carried over from the part before).
{"Gene": "ZDHHC15", "technical replicate": "3", "viability, normalised (%)": "55 (active)"}
{"Gene": "AAK1", "technical replicate": "1", "viability, normalised (%)": "48.1 (active)"}
{"Gene": "AAK1", "technical replicate": "2", "viability, normalised (%)": "41.4 (active)"}
{"Gene": "AAK1", "technical replicate": "3", "viability, normalised (%)": "49.5 (active)"}
{"Gene": "F7", "technical replicate": "1", "viability, normalised (%)": "41.6 (active)"}
{"Gene": "F7", "technical replicate": "2", "viability, normalised (%)": "22.4 (active)"}
{"Gene": "F7", "technical replicate": "3", "viability, normalised (%)": "24.9 (active)"}
{"Gene": "SETD1A", "technical replicate": "1", "viability, normalised (%)": "42.8 (active)"}
{"Gene": "SETD1A", "technical replicate": "2", "viability, normalised (%)": "49.6 (active)"}
{"Gene": "SETD1A", "technical replicate": "3", "viability, normalised (%)": "45.3 (active)"}
{"Gene": "INO80B", "technical replicate": "1", "viability, normalised (%)": "62.2 (active)"}
{"Gene": "INO80B", "technical replicate": "2", "viability, normalised (%)": "53.6 (active)"}
{"Gene": "INO80B", "technical replicate": "3", "viability, normalised (%)": "62.4 (active)"}
{"Gene": "PDE4C", "technical replicate": "1", "viability, normalised (%)": "59.2 (active)"}
{"Gene": "PDE4C", "technical replicate": "2", "viability, normalised (%)": "52.4 (active)"}
{"Gene": "PDE4C", "technical replicate": "3", "viability, normalised (%)": "54.2 (active)"}
{"Gene": "EPHA8", "technical replicate": "1", "viability, normalised (%)": "69.2 (active)"}
{"Gene": "EPHA8", "technical replicate": "2", "viability, normalised (%)": "62.6 (active)"}
{"Gene": "EPHA8", "technical replicate": "3", "viability, normalised (%)": "50.9 (active)"}
